From the supplement of paper PMC11006884
The entries are a selection whose mix differs from that of the whole data set.

Amino acid sequences for entries named in this document (tags omitted). A change or cut given only in a name is not applied to a line headed by its entry.
UniProt O95425, whole entry, looked up: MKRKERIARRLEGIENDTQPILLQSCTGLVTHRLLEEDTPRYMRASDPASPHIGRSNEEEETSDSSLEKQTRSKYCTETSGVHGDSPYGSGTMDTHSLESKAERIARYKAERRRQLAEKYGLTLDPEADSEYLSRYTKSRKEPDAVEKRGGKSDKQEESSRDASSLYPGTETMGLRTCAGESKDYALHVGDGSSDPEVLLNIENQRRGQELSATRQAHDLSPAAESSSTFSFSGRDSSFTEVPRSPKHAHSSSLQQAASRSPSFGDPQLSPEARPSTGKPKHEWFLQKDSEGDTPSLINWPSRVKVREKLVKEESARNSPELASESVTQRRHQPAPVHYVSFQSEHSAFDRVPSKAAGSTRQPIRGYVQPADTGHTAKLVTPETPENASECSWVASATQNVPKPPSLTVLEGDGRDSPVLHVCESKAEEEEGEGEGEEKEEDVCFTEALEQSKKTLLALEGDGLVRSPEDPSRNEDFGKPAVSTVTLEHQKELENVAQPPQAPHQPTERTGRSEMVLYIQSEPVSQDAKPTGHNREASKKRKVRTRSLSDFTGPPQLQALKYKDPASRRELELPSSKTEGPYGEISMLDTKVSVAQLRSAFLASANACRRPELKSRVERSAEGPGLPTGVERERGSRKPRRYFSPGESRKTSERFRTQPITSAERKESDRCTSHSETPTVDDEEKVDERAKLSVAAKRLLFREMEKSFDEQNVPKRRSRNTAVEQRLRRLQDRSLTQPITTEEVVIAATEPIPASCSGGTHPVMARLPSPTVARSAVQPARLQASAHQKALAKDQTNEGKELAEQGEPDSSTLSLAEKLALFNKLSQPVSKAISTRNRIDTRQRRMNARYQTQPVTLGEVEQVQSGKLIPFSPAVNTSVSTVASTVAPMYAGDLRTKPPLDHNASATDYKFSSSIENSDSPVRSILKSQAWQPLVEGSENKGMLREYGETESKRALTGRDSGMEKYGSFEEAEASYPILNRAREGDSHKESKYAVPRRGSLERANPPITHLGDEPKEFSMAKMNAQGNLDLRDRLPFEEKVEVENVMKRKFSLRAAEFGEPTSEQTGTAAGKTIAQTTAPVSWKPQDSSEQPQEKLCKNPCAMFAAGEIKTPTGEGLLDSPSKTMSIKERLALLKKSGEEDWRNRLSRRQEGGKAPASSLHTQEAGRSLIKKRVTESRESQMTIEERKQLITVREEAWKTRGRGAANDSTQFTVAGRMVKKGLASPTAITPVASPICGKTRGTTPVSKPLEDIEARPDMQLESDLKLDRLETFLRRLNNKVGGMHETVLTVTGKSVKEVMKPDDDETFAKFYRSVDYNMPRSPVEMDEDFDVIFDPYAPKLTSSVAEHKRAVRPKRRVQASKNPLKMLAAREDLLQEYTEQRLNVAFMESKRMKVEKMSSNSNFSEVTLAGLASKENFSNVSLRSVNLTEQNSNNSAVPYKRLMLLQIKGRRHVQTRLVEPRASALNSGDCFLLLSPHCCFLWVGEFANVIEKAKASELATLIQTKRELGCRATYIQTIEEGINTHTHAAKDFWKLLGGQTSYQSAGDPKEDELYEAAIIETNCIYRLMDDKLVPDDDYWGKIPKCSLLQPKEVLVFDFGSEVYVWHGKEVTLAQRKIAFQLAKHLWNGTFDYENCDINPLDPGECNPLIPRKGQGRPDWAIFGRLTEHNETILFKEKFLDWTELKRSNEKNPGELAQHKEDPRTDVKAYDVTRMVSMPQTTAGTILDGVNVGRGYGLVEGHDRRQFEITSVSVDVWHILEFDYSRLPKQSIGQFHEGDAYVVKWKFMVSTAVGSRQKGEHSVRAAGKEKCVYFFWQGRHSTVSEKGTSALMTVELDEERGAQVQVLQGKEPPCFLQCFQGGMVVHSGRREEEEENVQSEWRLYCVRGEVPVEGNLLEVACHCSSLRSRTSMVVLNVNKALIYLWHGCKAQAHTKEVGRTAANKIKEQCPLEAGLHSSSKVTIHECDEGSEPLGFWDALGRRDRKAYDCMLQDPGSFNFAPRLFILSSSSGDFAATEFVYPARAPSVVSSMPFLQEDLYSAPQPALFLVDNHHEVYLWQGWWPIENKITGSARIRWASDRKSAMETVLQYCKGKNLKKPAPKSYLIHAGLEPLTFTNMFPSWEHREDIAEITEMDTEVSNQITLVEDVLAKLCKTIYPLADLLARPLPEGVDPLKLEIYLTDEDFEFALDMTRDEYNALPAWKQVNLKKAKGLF
UniProt P07814: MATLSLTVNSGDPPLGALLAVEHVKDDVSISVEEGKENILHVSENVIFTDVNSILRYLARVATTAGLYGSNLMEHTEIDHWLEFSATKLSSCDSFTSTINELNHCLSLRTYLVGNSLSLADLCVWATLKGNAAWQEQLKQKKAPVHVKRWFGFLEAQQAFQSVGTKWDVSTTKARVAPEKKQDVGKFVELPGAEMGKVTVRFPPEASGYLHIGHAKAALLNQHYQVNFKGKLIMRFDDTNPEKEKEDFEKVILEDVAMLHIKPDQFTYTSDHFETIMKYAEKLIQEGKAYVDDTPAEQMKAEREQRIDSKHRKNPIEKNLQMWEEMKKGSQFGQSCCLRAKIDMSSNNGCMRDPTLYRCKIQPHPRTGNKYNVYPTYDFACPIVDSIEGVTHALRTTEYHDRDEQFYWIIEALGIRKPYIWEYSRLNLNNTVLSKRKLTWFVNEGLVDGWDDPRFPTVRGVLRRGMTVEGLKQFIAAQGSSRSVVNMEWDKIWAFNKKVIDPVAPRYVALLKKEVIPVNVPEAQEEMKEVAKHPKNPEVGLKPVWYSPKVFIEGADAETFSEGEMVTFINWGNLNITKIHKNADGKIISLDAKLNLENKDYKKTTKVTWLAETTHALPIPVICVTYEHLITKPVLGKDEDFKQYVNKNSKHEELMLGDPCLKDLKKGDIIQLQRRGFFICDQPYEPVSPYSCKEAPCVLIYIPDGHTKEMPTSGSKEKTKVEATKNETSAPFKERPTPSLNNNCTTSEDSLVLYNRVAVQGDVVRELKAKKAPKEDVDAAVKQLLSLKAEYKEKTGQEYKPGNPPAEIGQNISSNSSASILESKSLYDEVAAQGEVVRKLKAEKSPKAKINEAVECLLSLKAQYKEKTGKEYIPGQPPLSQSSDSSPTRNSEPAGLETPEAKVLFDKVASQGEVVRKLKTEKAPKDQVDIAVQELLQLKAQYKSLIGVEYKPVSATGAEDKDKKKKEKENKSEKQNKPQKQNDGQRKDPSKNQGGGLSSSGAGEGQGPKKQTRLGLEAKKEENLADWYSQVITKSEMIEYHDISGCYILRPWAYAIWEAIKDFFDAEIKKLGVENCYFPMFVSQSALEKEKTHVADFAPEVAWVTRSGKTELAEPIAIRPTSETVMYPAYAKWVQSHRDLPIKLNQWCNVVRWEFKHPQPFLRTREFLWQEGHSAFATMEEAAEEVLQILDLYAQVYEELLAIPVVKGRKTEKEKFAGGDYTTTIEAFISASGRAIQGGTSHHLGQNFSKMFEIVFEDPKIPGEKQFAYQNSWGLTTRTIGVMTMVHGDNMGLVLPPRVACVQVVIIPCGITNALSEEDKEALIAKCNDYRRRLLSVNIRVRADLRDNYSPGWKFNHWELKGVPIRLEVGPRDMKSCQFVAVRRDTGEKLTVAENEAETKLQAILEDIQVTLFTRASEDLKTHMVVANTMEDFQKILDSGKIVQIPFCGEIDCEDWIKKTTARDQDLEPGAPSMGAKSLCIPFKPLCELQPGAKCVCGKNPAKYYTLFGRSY
UniProt O95295: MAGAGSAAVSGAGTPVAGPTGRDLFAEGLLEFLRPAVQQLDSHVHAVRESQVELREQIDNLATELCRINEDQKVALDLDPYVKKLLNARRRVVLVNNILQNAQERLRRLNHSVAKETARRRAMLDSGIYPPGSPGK
UniProt O95684: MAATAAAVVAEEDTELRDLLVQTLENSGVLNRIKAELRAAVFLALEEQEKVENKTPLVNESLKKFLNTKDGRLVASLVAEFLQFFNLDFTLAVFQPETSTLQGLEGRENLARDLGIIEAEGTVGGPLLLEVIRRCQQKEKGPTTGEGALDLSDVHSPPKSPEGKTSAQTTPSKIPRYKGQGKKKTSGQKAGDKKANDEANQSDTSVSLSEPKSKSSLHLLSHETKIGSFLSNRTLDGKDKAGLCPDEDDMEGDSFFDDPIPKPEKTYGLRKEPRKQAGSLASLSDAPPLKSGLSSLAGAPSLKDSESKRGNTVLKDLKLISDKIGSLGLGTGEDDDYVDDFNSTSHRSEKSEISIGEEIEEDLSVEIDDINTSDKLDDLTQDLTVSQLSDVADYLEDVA
UniProt O94804: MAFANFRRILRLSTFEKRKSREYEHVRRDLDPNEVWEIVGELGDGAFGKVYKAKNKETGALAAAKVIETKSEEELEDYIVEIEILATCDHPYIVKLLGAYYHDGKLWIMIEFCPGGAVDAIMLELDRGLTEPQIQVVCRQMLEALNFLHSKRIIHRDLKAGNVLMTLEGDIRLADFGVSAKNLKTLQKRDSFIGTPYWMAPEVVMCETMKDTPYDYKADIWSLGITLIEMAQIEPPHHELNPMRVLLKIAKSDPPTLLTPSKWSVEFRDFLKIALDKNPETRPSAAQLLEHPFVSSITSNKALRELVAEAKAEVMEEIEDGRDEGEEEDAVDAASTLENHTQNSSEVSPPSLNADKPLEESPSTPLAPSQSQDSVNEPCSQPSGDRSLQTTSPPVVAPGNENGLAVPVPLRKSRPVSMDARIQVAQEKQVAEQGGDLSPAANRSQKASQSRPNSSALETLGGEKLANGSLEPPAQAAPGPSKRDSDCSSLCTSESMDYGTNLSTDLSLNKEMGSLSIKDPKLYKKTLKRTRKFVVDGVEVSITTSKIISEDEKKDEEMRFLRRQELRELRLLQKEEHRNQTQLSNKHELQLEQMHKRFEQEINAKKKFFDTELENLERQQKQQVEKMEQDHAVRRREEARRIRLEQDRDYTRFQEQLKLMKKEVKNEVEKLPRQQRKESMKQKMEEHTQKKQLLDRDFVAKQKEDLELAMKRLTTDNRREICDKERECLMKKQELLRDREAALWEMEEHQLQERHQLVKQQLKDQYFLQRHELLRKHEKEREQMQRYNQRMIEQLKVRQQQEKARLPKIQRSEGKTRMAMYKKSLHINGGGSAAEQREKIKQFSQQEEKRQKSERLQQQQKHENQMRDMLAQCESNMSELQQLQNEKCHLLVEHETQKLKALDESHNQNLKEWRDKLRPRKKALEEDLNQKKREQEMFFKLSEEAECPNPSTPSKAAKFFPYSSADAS
UniProt O94906: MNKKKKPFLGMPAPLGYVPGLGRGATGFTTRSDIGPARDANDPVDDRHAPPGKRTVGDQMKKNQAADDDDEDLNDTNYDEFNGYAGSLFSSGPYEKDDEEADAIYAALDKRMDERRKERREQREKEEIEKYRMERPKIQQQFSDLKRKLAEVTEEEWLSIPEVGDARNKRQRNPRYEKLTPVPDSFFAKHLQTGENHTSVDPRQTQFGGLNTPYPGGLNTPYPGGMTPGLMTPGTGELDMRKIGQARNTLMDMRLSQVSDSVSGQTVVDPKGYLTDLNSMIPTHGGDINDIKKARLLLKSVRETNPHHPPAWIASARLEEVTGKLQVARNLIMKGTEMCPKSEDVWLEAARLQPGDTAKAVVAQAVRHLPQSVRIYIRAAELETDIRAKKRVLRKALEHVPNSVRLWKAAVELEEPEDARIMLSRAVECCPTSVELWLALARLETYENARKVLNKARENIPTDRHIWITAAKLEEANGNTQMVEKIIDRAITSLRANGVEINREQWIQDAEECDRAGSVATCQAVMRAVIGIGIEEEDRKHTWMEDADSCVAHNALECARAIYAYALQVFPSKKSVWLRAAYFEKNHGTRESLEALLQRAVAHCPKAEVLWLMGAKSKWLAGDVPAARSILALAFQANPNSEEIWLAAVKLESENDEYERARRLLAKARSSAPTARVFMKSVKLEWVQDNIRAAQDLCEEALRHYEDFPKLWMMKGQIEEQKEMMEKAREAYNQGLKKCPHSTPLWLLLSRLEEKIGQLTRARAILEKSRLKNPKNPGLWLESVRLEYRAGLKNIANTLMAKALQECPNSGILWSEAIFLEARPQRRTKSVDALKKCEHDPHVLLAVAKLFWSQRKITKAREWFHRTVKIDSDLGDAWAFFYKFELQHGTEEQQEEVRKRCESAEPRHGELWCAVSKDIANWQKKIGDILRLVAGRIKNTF
UniProt P05141: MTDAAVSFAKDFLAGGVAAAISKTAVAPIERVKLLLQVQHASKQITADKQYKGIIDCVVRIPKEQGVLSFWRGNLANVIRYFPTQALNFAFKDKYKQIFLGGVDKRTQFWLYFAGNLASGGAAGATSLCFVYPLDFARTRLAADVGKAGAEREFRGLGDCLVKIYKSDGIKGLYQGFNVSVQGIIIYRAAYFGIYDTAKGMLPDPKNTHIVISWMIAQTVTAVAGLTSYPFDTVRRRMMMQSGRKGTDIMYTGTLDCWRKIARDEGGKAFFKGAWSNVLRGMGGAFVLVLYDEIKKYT

compound: COC(=O)C#Cc1ccccc1 [methyl 3-phenylpropiolate]; assay: log2 ratio of iodoacetamide-alkyne labeling of the cysteine site, DMSO over compound (competition); higher = stronger covalent engagement of the cysteine by the compound, active = 1 or more; conditions: 500 µM; treatment time 1 h; system: HEK293T cell lysate
Method in brief: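 After 1 h at ambient temperature with vehicle or electrophile (500 µM), HEK293T lysate (2 mg/mL) was labelled for 1 h with iodoacetamide alkyne and clicked to sCIP-TMT reagents. Pooled samples were trypsin-digested overnight at 37 °C, streptavidin-enriched, acid-eluted and analysed by Orbitrap Eclipse LC-MS/MS with FAIMS, then quantified in FragPipe over three replicates with duplicate channels. A cysteine's log2 competition ratio is its mean control-channel over mean compound-channel reporter intensity. Cysteines quantified in only one replicate were not included.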

log2 ratio of iodoacetamide-alkyne labeling, inactive:
UniProt O94763_C420 0.329
PRKD3 C29 (UniProt O94806) 0.121
SVIL C1989 (UniProt O95425) 0.825
EPRS C623 (UniProt P07814) -0.0298
HERC2 C1201 (UniProt O95714) 0.186
EPRS C381 (UniProt P07814) 0.268
SNAPIN C66 (UniProt O95295) 0.113
HSPA4L C589 (UniProt O95757) 0.0295
FGFR1OP C244 (UniProt O95684) 0.0665
LDHA C185 (UniProt P00338) 0.156
PARN C169 (UniProt O95453) 0.901
GLS C518 (UniProt O94925) 0.321
ATP1A1 C211 (UniProt P05023) 0.147
HSPA4L C290 (UniProt O95757) -0.0192
IPO7 C90 (UniProt O95373) 0.213
BCL10 C122 (UniProt O95999) 0.992
LDHA C131 (UniProt P00338) 0.589
PCF11 C1534 (UniProt O94913) 0.259
UniProt O95071_C739 0.0375
SSB C18 (UniProt P05455) -0.139
ALDOA C339 (UniProt P04075) -0.0262
AP2A1 C970 (UniProt O95782) 0.411
SEC24D C824 (UniProt O94855) 0.304
HERC2 C2726 (UniProt O95714) -0.00741
MFN2 C482 (UniProt O95140) 0.471
UniProt O94804_C947 0.487
PRPF6 C739 (UniProt O94906) 0.57
YEATS4 C210 (UniProt O95619) 0.231
PCNT C2150 (UniProt O95613) 0.075
PGK1 C316 (UniProt P00558) 0.0644
SLC25A5 C129 (UniProt P05141) 0.212
UniProt O94826_C544 0.198
SEC24B C1267 (UniProt O95487) -0.267
UniProt P06493_C119 0.0033
UniProt O95551_C6 0.501
UniProt P07437_C303 0.421
HPRT1 C23 (UniProt P00492) 0.0449

2 entries drawn at random from the list so far:
log2 ratio of iodoacetamide-alkyne labeling, inactive:
UniProt O95071_C739 0.0375
SSB C18 (UniProt P05455) -0.139
